{"source": "patent US20120269834A1", "about": "(priority 2010, published 2012)", "assay": "general procedure: Fmoc solid-phase peptide synthesis; Fmoc-Glu(OtBu)-Wang Resin; FastMoc chemistry", "conditions": "whole synthesis, scale 0.25 mmol", "note": "Plain letter strings leave the end groups untold."}
{"sequence": "CTSPPSPSPAPE (conjugated to KLH; Peptide immunogen based on Strep pyrognes cleavage of human IgG1)", "values": [{"measurement": "crude mass", "value": "Approximately 190 mg"}, {"measurement": "isolated mass", "value": 38, "unit": "mg"}]}
